# Experimental data: doi:10.1101/589580
# Results are given in words; binding and its absence hold for the method and conditions named. Binding calls can cover weak binding; strength is not graded here. Where a sequence is shown, tags or fusion partners need not be part of it.
# Molecular target: T1, full-length ZO3 with C-terminal mEGFP (UniProt O95049)
# T1 sequence: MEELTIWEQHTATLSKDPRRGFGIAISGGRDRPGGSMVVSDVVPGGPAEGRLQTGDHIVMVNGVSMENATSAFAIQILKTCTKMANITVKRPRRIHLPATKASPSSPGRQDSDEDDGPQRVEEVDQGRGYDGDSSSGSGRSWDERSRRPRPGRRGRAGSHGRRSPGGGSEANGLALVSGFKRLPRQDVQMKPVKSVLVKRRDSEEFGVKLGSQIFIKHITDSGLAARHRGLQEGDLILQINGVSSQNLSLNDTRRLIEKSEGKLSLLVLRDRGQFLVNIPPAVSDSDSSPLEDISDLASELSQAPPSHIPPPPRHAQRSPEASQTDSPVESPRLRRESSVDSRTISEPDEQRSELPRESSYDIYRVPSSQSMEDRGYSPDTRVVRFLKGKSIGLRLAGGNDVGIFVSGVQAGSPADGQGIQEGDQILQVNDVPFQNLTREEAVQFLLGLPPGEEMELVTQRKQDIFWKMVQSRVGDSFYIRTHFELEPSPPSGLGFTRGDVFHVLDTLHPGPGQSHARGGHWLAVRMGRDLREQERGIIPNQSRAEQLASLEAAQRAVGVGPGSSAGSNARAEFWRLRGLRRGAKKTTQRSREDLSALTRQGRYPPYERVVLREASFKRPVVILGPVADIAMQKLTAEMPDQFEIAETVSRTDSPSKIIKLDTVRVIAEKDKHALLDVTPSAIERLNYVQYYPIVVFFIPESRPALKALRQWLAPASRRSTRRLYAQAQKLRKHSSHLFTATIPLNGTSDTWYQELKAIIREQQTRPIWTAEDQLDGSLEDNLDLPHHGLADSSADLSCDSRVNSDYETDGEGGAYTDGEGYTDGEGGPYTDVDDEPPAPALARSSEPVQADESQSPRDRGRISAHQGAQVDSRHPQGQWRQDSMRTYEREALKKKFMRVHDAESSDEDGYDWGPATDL
# Assay: client partitioning into phase-separated droplets
row,Substance,binding
1,"ZO3 C-terminal fragment, mCherry-labelled (domain or fragment)",no binding
2,"ZO1 C-terminal fragment, mCherry-labelled (domain or fragment)",no binding
3,"ZO3 N-terminal fragment, mCherry-labelled (domain or fragment)",binds
4,"ZO1 N-terminal fragment, mCherry-labelled (domain or fragment)",binds
